Source: PubChem BioAssay AID188 (DTP/NCI, 2004)
Shown are survivors of the treated group in tumour-free mice. Counts of survivors are from the toxicity check (mostly the fifth day) where no day follows; animals may have died later. Schedule codes are those of the source, taken here to give the interval after Q, in days (D) or hours (H), and the number of doses after X.

System: CD2F1 mice, nontumored, toxicity/survival
Assay: NCI In Vivo Anticancer Drug Screen. Data for tumor model Nontumored Animals (Toxicity Test) in CD2F1 (CDF1) mice

Measured: survivor count

COC(OC(CO)C(O)S(=O)(=O)O)C(O)S(=O)(=O)O (stereo not given)
5 of 8: dose: 100.0 mg/kg/injection, schedule: Q03HX008 (ip), vehicle: saline
6 of 8: dose: 400.0 mg/kg/injection, schedule: Q01DX009 (sc), vehicle: saline
8 of 8: dose: 50.0 mg/kg/injection, schedule: Q01DX001 (ip), vehicle: saline | dose: 50.0 mg/kg/injection, schedule: Q01DX009 (ip), vehicle: saline | dose: 50.0 mg/kg/injection, schedule: Q01DX009 (sc), vehicle: saline | dose: 50.0 mg/kg/injection, schedule: Q03HX008 (ip), vehicle: saline | dose: 50.0 mg/kg/injection, schedule: Q03HX016 (ip), vehicle: saline | dose: 50.0 mg/kg/injection, schedule: Q03HX024 (ip), vehicle: saline | dose: 100.0 mg/kg/injection, schedule: Q01DX001 (ip), vehicle: saline | dose: 100.0 mg/kg/injection, schedule: Q01DX009 (oral), vehicle: saline | dose: 100.0 mg/kg/injection, schedule: Q01DX009 (sc), vehicle: saline | dose: 100.0 mg/kg/injection, schedule: Q03HX024 (ip), vehicle: saline | dose: 100.0 mg/kg/injection, schedule: Q04DX003 (ip), vehicle: saline | dose: 100.0 mg/kg/injection, schedule: Q08DX002 (ip), vehicle: saline | dose: 200.0 mg/kg/injection, schedule: Q01DX001 (ip), vehicle: saline | dose: 200.0 mg/kg/injection, schedule: Q01DX009 (ip), vehicle: saline | dose: 200.0 mg/kg/injection, schedule: Q01DX009 (oral), vehicle: saline | dose: 200.0 mg/kg/injection, schedule: Q01DX009 (sc), vehicle: saline | dose: 200.0 mg/kg/injection, schedule: Q04DX003 (ip), vehicle: saline | dose: 200.0 mg/kg/injection, schedule: Q08DX002 (ip), vehicle: saline | dose: 400.0 mg/kg/injection, schedule: Q01DX001 (ip), vehicle: saline | dose: 400.0 mg/kg/injection, schedule: Q01DX009 (oral), vehicle: saline | dose: 400.0 mg/kg/injection, schedule: Q04DX003 (ip), vehicle: saline | dose: 400.0 mg/kg/injection, schedule: Q08DX002 (ip), vehicle: saline | dose: 800.0 mg/kg/injection, schedule: Q01DX001 (ip), vehicle: saline | dose: 800.0 mg/kg/injection, schedule: Q01DX009 (oral), vehicle: saline | dose: 800.0 mg/kg/injection, schedule: Q04DX003 (ip), vehicle: saline | dose: 800.0 mg/kg/injection, schedule: Q08DX002 (ip), vehicle: saline
6 of 6: dose: 400.0 mg/kg/injection, schedule: Q01DX009 (ip), vehicle: saline
0 of 8: dose: 200.0 mg/kg/injection, schedule: Q03HX008 (ip), vehicle: saline | dose: 200.0 mg/kg/injection, schedule: Q03HX016 (ip), vehicle: saline | dose: 200.0 mg/kg/injection, schedule: Q03HX024 (ip), vehicle: saline | dose: 400.0 mg/kg/injection, schedule: Q03HX008 (ip), vehicle: saline | dose: 400.0 mg/kg/injection, schedule: Q03HX016 (ip), vehicle: saline | dose: 400.0 mg/kg/injection, schedule: Q03HX024 (ip), vehicle: saline
7 of 8: dose: 100.0 mg/kg/injection, schedule: Q01DX009 (ip), vehicle: saline | dose: 100.0 mg/kg/injection, schedule: Q03HX016 (ip), vehicle: saline

O=C(O)CCCc1ccc(N(CCCl)CCCl)cc1
4 of 8: dose: 64.0 mg/kg/injection, schedule: Q01DX009 (sc), vehicle: other | dose: 128.0 mg/kg/injection, schedule: Q01DX001 (oral), vehicle: other
0 of 8: dose: 128.0 mg/kg/injection, schedule: Q04DX003 (ip), vehicle: other
6 of 8: dose: 64.0 mg/kg/injection, schedule: Q01DX001 (ip), vehicle: other | dose: 64.0 mg/kg/injection, schedule: Q01DX009 (oral), vehicle: other | dose: 128.0 mg/kg/injection, schedule: Q01DX001 (sc), vehicle: other | dose: 128.0 mg/kg/injection, schedule: Q04DX003 (oral), vehicle: other
1 of 8: dose: 64.0 mg/kg/injection, schedule: Q01DX009 (ip), vehicle: other | dose: 128.0 mg/kg/injection, schedule: Q01DX001 (ip), vehicle: other | dose: 128.0 mg/kg/injection, schedule: Q08DX002 (ip), vehicle: other
8 of 8: dose: 1.0 mg/kg/injection, schedule: Q03HX024 (ip), vehicle: other | dose: 2.0 mg/kg/injection, schedule: Q01DX009 (oral), vehicle: other | dose: 2.0 mg/kg/injection, schedule: Q03HX008 (ip), vehicle: other | dose: 2.0 mg/kg/injection, schedule: Q03HX016 (ip), vehicle: other | dose: 2.0 mg/kg/injection, schedule: Q03HX024 (ip), vehicle: other | dose: 4.0 mg/kg/injection, schedule: Q01DX001 (oral), vehicle: other | dose: 4.0 mg/kg/injection, schedule: Q01DX009 (ip), vehicle: other | dose: 4.0 mg/kg/injection, schedule: Q01DX009 (oral), vehicle: other | dose: 4.0 mg/kg/injection, schedule: Q01DX009 (sc), vehicle: other | dose: 4.0 mg/kg/injection, schedule: Q03HX008 (ip), vehicle: other | dose: 4.0 mg/kg/injection, schedule: Q03HX016 (ip), vehicle: other | dose: 4.0 mg/kg/injection, schedule: Q03HX024 (ip), vehicle: other | dose: 4.0 mg/kg/injection, schedule: Q04DX003 (oral), vehicle: other | dose: 8.0 mg/kg/injection, schedule: Q01DX001 (oral), vehicle: other | dose: 8.0 mg/kg/injection, schedule: Q01DX009 (ip), vehicle: other | dose: 8.0 mg/kg/injection, schedule: Q01DX009 (oral), vehicle: other | dose: 8.0 mg/kg/injection, schedule: Q01DX009 (sc), vehicle: other | dose: 8.0 mg/kg/injection, schedule: Q03HX008 (ip), vehicle: other | dose: 8.0 mg/kg/injection, schedule: Q03HX016 (ip), vehicle: other | dose: 8.0 mg/kg/injection, schedule: Q03HX024 (ip), vehicle: other | dose: 8.0 mg/kg/injection, schedule: Q04DX003 (ip), vehicle: other | dose: 8.0 mg/kg/injection, schedule: Q04DX003 (oral), vehicle: other | dose: 16.0 mg/kg/injection, schedule: Q01DX001 (ip), vehicle: other | dose: 16.0 mg/kg/injection, schedule: Q01DX001 (oral), vehicle: other | dose: 16.0 mg/kg/injection, schedule: Q01DX001 (sc), vehicle: other | dose: 16.0 mg/kg/injection, schedule: Q01DX009 (ip), vehicle: other | dose: 16.0 mg/kg/injection, schedule: Q01DX009 (oral), vehicle: other | dose: 16.0 mg/kg/injection, schedule: Q01DX009 (sc), vehicle: other | dose: 16.0 mg/kg/injection, schedule: Q03HX008 (ip), vehicle: other | dose: 16.0 mg/kg/injection, schedule: Q03HX016 (ip), vehicle: other | dose: 16.0 mg/kg/injection, schedule: Q03HX024 (ip), vehicle: other | dose: 16.0 mg/kg/injection, schedule: Q04DX003 (ip), vehicle: other | dose: 16.0 mg/kg/injection, schedule: Q04DX003 (oral), vehicle: other | dose: 16.0 mg/kg/injection, schedule: Q08DX002 (ip), vehicle: other | dose: 32.0 mg/kg/injection, schedule: Q01DX001 (ip), vehicle: other | dose: 32.0 mg/kg/injection, schedule: Q01DX001 (oral), vehicle: other | dose: 32.0 mg/kg/injection, schedule: Q01DX001 (sc), vehicle: other | dose: 32.0 mg/kg/injection, schedule: Q01DX009 (ip), vehicle: other | dose: 32.0 mg/kg/injection, schedule: Q01DX009 (oral), vehicle: other | dose: 32.0 mg/kg/injection, schedule: Q01DX009 (sc), vehicle: other | dose: 32.0 mg/kg/injection, schedule: Q04DX003 (ip), vehicle: other | dose: 32.0 mg/kg/injection, schedule: Q04DX003 (oral), vehicle: other | dose: 32.0 mg/kg/injection, schedule: Q08DX002 (ip), vehicle: other | dose: 64.0 mg/kg/injection, schedule: Q01DX001 (oral), vehicle: other | dose: 64.0 mg/kg/injection, schedule: Q01DX001 (sc), vehicle: other | dose: 64.0 mg/kg/injection, schedule: Q04DX003 (ip), vehicle: other | dose: 64.0 mg/kg/injection, schedule: Q04DX003 (oral), vehicle: other | dose: 64.0 mg/kg/injection, schedule: Q08DX002 (ip), vehicle: other
